Data as given in the supplement of paper PMC12823440, “Inhibitors supercharge kinase turnover through native proteolytic circuits” (Nature, 2025).
Counter-ions that a name gives are not always drawn. The list shows a part of the results. Hit calls seldom repeat between salt and free forms of one compound.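 In K562 cells expressing nanoluciferase-fused kinases, luminescence was recorded at 4 h intervals between 2 and 18 h, normalized as percent of control with DMSO at 100% and a positive control at 0%. A significant (2 sigma) signal drop marks a time point as decreased. The authors' rule for a hit is not shown and takes in more than the number of time points.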

Chains of the proteins cited; added tags and fusions are not shown. Lines headed by an entry give the natural chain unless they say otherwise; changes in a name come on top.
UniProt P11362, whole entry, looked up: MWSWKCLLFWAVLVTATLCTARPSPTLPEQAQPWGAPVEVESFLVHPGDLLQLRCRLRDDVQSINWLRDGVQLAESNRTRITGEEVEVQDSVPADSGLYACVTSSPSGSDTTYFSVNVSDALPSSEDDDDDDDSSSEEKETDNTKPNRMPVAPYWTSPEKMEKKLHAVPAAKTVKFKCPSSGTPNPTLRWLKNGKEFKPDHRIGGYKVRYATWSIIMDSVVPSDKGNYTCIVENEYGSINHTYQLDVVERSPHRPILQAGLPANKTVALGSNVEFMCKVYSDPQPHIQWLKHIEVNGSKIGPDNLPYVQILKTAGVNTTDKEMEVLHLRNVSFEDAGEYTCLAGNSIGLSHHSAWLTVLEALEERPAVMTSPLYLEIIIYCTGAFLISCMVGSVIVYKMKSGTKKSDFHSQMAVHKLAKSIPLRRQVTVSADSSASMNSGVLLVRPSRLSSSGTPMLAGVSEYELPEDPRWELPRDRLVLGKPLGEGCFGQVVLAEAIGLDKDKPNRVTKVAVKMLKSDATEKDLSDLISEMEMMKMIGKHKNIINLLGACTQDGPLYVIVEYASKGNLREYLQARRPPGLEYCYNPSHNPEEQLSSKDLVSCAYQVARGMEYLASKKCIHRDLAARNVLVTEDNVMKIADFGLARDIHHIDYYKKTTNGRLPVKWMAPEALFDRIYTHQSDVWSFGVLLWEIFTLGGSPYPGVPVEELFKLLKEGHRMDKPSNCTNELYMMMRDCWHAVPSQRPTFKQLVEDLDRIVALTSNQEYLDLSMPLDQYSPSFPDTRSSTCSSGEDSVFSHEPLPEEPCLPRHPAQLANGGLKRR
UniProt P49840: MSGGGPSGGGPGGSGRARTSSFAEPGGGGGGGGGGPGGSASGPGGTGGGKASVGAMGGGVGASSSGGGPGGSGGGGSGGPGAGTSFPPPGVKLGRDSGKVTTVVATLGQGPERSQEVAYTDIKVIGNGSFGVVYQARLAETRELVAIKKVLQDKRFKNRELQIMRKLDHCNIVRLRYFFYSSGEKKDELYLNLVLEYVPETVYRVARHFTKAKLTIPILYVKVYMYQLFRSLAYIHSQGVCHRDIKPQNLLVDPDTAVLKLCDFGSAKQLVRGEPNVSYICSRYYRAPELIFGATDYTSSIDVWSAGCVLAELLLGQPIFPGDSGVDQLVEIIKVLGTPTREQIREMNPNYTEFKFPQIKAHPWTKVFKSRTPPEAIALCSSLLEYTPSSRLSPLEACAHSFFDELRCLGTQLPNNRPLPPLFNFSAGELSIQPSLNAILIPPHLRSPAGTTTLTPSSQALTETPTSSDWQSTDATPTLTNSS
UniProt P14616: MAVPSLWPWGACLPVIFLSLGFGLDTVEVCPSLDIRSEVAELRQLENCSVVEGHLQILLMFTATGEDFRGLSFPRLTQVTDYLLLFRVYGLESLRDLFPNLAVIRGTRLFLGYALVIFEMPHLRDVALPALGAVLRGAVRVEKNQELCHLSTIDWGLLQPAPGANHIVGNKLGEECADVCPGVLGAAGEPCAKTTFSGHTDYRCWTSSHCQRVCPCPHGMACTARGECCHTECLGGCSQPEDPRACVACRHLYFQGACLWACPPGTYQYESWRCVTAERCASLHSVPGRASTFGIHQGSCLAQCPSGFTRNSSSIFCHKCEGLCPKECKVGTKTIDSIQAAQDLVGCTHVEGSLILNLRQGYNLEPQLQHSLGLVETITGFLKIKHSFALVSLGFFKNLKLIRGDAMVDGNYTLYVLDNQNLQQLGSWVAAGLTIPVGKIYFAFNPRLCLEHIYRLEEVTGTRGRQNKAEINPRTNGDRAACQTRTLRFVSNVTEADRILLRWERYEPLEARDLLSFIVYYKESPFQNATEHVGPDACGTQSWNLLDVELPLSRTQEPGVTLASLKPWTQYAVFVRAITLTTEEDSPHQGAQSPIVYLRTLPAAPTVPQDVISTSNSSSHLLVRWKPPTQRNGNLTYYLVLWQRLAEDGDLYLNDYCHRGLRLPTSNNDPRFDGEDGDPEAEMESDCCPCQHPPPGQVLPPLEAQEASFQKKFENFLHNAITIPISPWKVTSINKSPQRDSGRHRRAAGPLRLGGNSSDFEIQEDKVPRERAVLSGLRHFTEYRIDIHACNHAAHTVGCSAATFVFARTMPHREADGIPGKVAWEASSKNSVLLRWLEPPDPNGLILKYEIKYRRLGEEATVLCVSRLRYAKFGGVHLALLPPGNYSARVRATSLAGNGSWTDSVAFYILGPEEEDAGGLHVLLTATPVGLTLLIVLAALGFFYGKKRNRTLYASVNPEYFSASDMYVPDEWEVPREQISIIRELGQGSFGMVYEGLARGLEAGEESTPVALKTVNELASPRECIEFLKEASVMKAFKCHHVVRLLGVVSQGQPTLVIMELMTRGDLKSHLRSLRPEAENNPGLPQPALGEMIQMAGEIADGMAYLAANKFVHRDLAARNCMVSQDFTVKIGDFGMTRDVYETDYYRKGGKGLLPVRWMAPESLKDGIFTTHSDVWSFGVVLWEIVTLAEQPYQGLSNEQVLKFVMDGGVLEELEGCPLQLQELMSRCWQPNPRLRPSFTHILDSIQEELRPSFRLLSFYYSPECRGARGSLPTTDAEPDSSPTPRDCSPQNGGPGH
UniProt P23458: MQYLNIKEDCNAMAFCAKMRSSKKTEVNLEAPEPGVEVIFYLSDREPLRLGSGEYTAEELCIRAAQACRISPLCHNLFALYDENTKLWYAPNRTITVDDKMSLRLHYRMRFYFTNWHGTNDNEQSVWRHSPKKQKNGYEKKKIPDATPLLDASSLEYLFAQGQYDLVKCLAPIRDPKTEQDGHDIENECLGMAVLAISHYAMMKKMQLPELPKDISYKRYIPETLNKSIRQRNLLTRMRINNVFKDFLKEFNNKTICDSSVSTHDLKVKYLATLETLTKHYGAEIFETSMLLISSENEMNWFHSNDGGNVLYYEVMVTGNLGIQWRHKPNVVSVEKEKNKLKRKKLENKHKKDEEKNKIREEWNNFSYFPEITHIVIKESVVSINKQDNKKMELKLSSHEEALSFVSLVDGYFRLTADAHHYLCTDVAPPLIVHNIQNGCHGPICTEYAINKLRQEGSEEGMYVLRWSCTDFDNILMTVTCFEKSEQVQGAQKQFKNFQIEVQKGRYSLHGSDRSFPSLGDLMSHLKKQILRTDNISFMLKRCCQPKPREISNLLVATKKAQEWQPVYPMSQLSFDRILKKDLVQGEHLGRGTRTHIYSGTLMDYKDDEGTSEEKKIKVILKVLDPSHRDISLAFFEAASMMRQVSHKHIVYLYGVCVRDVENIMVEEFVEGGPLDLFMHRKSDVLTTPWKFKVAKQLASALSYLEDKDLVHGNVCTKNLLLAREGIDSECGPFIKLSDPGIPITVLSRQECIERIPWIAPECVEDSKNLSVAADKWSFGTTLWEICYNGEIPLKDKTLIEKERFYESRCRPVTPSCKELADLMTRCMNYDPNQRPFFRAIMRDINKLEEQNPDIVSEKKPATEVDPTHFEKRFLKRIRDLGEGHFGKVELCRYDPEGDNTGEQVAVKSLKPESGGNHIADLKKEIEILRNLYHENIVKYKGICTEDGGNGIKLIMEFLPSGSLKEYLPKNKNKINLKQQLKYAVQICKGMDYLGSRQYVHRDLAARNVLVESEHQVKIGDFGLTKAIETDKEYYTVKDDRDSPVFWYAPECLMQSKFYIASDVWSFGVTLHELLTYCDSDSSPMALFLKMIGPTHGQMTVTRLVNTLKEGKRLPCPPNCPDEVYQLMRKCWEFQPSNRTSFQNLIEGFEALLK
UniProt Q8IWU2: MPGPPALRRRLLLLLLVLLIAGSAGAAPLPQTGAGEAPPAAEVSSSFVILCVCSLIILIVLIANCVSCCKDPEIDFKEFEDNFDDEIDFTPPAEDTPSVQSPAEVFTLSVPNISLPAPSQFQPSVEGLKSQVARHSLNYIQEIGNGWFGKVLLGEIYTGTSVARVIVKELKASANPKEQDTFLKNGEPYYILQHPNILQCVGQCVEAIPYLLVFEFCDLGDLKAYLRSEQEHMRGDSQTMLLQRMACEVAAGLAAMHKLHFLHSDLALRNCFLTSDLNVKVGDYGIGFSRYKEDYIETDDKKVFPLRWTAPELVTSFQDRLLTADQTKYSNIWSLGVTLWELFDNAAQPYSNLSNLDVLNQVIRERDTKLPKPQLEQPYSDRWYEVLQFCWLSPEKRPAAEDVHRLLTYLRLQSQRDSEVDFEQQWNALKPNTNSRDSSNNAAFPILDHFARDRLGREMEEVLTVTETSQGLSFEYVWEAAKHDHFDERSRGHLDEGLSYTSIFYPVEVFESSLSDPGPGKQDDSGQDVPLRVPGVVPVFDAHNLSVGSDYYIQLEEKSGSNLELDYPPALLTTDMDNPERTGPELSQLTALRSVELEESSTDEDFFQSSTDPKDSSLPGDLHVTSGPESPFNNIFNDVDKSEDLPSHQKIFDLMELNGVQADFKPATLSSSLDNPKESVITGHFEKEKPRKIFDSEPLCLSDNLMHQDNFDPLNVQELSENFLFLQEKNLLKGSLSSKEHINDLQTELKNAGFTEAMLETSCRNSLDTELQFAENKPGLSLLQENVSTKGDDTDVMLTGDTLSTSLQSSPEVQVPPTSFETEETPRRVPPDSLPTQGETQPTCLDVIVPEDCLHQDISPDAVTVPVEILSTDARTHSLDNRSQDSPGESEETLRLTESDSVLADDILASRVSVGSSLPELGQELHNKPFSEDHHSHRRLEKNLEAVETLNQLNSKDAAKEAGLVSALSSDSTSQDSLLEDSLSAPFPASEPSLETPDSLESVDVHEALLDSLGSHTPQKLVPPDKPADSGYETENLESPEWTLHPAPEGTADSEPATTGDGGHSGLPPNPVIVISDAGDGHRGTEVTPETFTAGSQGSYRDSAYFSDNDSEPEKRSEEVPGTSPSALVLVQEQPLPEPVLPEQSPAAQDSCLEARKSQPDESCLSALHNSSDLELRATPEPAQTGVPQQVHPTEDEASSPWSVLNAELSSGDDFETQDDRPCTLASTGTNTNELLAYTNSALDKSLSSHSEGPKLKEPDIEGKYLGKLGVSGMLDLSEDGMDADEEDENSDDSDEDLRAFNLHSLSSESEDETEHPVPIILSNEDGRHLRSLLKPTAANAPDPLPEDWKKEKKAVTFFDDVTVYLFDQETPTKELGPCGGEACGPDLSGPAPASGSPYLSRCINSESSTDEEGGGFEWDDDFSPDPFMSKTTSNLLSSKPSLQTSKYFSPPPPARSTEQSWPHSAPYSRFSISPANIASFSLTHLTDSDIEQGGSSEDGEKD
UniProt P07948: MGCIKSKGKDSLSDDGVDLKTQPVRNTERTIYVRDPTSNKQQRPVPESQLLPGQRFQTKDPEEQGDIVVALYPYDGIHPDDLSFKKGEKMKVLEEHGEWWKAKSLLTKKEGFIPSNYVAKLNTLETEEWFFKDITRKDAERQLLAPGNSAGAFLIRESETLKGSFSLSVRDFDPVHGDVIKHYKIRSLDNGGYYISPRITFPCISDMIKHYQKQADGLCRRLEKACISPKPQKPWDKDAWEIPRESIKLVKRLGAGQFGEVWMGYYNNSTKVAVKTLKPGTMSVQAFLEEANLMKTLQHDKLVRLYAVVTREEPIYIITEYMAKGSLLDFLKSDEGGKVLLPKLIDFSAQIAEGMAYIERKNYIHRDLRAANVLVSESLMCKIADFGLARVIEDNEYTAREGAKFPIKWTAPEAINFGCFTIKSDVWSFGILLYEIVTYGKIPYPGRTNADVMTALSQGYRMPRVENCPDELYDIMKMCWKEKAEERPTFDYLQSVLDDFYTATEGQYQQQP
UniProt Q12851: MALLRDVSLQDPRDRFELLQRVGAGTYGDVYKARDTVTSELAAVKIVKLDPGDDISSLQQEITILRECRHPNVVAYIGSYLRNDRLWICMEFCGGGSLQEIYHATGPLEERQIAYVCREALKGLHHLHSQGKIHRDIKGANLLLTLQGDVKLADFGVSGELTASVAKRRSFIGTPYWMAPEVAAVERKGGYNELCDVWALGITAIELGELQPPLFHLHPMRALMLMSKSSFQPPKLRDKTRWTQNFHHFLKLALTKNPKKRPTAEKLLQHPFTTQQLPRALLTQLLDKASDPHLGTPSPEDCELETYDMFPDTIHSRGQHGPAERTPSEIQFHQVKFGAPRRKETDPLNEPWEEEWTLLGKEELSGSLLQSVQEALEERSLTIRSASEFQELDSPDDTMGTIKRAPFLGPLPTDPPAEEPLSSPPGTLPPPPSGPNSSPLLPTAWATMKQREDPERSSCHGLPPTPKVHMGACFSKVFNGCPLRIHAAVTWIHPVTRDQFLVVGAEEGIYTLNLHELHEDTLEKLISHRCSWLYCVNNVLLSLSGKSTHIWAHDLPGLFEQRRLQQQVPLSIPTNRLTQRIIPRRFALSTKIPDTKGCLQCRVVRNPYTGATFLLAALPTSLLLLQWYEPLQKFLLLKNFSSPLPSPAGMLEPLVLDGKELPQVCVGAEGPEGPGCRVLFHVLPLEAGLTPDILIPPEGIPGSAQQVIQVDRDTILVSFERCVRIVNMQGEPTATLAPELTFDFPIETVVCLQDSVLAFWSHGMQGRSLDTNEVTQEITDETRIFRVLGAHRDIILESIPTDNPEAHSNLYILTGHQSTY

What was measured:
Experiment in all cases: kinase-Nluc reporter destabilization hit call (1 = scored as downregulated) (binary); higher = compound decreases kinase abundance
Conditions in all cases: K562, 2-18 h
ERN1 = ERN1 (UniProt O75460)
FGFR1 = FGFR1 (UniProt P11362)
FGFR2 = FGFR2 (UniProt P21802)
FGFR3 = FGFR3 (UniProt P22607)
FGR = FGR (UniProt P09769)
FLT3 = FLT3 (UniProt P36888)
FYN = FYN (UniProt P06241)
GSK3A = GSK3A (UniProt P49840)
HER2 = HER2 (UniProt P04626)
INSRR = INSRR (UniProt P14616)
IRAK3 = IRAK3 (UniProt Q9Y616)
JAK1 = JAK1 (UniProt P23458)
LCK = LCK (UniProt P06239)
LIMK1 = LIMK1 (UniProt P53667)
LIMK2 = LIMK2 (UniProt P53671)
LMTK2 = LMTK2 (UniProt Q8IWU2)
LYN = LYN (UniProt P07948)
MAP2K1 = MAP2K1 (UniProt Q02750)
MAP2K2 = MAP2K2 (UniProt P36507)
MAP4K2 = MAP4K2 (UniProt Q12851)

Row | SMILES | kinase-Nluc reporter destabilization hit call (ERN1; 10 µM) | kinase-Nluc reporter destabilization hit call (FGFR1; 10 µM) | kinase-Nluc reporter destabilization hit call (FGFR2; 10 µM) | kinase-Nluc reporter destabilization hit call (FGFR3; 10 µM) | kinase-Nluc reporter destabilization hit call (FGR; 10 µM) | kinase-Nluc reporter destabilization hit call (FLT3; 10 µM) | kinase-Nluc reporter destabilization hit call (FYN; 10 µM) | kinase-Nluc reporter destabilization hit call (GSK3A; 10 µM) | kinase-Nluc reporter destabilization hit call (HER2; 10 µM) | kinase-Nluc reporter destabilization hit call (INSRR; 10 µM) | kinase-Nluc reporter destabilization hit call (IRAK3; 10 µM) | kinase-Nluc reporter destabilization hit call (JAK1; 10 µM) | kinase-Nluc reporter destabilization hit call (LCK; 10 µM) | kinase-Nluc reporter destabilization hit call (LIMK1; 10 µM) | kinase-Nluc reporter destabilization hit call (LIMK2; 10 µM) | kinase-Nluc reporter destabilization hit call (LMTK2; 10 µM) | kinase-Nluc reporter destabilization hit call (LYN; 10 µM) | kinase-Nluc reporter destabilization hit call (MAP2K1; 10 µM) | kinase-Nluc reporter destabilization hit call (MAP2K2; 10 µM) | kinase-Nluc reporter destabilization hit call (MAP4K2; 10 µM) | kinase-Nluc reporter destabilization hit call (ERN1; 2.5 µM) | kinase-Nluc reporter destabilization hit call (FGFR1; 2.5 µM) | kinase-Nluc reporter destabilization hit call (FGFR2; 2.5 µM) | kinase-Nluc reporter destabilization hit call (FGFR3; 2.5 µM) | kinase-Nluc reporter destabilization hit call (FGR; 2.5 µM) | kinase-Nluc reporter destabilization hit call (FLT3; 2.5 µM) | kinase-Nluc reporter destabilization hit call (FYN; 2.5 µM) | kinase-Nluc reporter destabilization hit call (GSK3A; 2.5 µM) | kinase-Nluc reporter destabilization hit call (HER2; 2.5 µM) | kinase-Nluc reporter destabilization hit call (INSRR; 2.5 µM) | kinase-Nluc reporter destabilization hit call (IRAK3; 2.5 µM) | kinase-Nluc reporter destabilization hit call (JAK1; 2.5 µM) | kinase-Nluc reporter destabilization hit call (LCK; 2.5 µM) | kinase-Nluc reporter destabilization hit call (LIMK1; 2.5 µM) | kinase-Nluc reporter destabilization hit call (LIMK2; 2.5 µM) | kinase-Nluc reporter destabilization hit call (LMTK2; 2.5 µM) | kinase-Nluc reporter destabilization hit call (LYN; 2.5 µM) | kinase-Nluc reporter destabilization hit call (MAP2K1; 2.5 µM) | kinase-Nluc reporter destabilization hit call (MAP2K2; 2.5 µM) | kinase-Nluc reporter destabilization hit call (MAP4K2; 2.5 µM)
1 | CS(=O)(=O)N1CCN(Cc2cc3nc(-c4cccc5[nH]ncc45)nc(N4CCOCC4)c3s2)CC1 [Pictilisib] | inactive: 0 | inactive: 0 | inactive: 0 | inactive: 0 | inactive: 0 | inactive: 0 | inactive: 0 | inactive: 0 | inactive: 0 | inactive: 0 | inactive: 0 | inactive: 0 | inactive: 0 | inactive: 0 | inactive: 0 | inactive: 0 | inactive: 0 | inactive: 0 | inactive: 0 | inactive: 0 | – | – | – | – | – | – | – | – | – | – | – | – | – | – | – | – | – | – | – | –
2 | CNC(=O)c1cc(Oc2ccc(NC(=O)Nc3ccc(Cl)c(C(F)(F)F)c3)c(F)c2)ccn1 [Regorafenib] | – | – | – | – | – | – | – | – | – | – | – | – | – | – | – | – | – | – | – | – | inactive: 0 | inactive: 0 | inactive: 0 | inactive: 0 | inactive: 0 | inactive: 0 | inactive: 0 | inactive: 0 | inactive: 0 | inactive: 0 | inactive: 0 | inactive: 0 | inactive: 0 | inactive: 0 | inactive: 0 | inactive: 0 | inactive: 0 | inactive: 0 | inactive: 0 | inactive: 0
3 | O=C1Nc2ccccc2/C1=C/c1ccccn1 [(E/Z)-GSK-3β inhibitor 1] | inactive: 0 | inactive: 0 | inactive: 0 | inactive: 0 | inactive: 0 | inactive: 0 | inactive: 0 | inactive: 0 | inactive: 0 | inactive: 0 | inactive: 0 | inactive: 0 | inactive: 0 | inactive: 0 | inactive: 0 | inactive: 0 | inactive: 0 | inactive: 0 | inactive: 0 | inactive: 0 | – | – | – | – | – | – | – | – | – | – | – | – | – | – | – | – | – | – | – | –
4 | O=C(O)c1ccc2c(c1)nc(Nc1cccc(Cl)c1)c1ccncc12 [Silmitasertib (sodium salt)] | inactive: 0 | inactive: 0 | inactive: 0 | inactive: 0 | inactive: 0 | inactive: 0 | inactive: 0 | inactive: 0 | inactive: 0 | inactive: 0 | inactive: 0 | inactive: 0 | inactive: 0 | inactive: 0 | inactive: 0 | inactive: 0 | inactive: 0 | inactive: 0 | inactive: 0 | inactive: 0 | – | – | – | – | – | – | – | – | – | – | – | – | – | – | – | – | – | – | – | –
5 | Cn1cc(-c2cnc3ccc4ccc(CS(=O)(=O)NCc5ccccn5)cc4c(=O)c3c2)cn1 | inactive: 0 | inactive: 0 | inactive: 0 | inactive: 0 | inactive: 0 | inactive: 0 | inactive: 0 | inactive: 0 | inactive: 0 | inactive: 0 | inactive: 0 | inactive: 0 | inactive: 0 | inactive: 0 | inactive: 0 | inactive: 0 | inactive: 0 | inactive: 0 | inactive: 0 | inactive: 0 | – | – | – | – | – | – | – | – | – | – | – | – | – | – | – | – | – | – | – | –
6 | CNc1ncc2cc(-c3ccc(-c4cccc(C)n4)cc3Cl)c(=O)n(C[C@H]3OC[C@H](N)CO3)c2n1 [G-5555 (hydrochloride)] | inactive: 0 | inactive: 0 | inactive: 0 | inactive: 0 | inactive: 0 | inactive: 0 | inactive: 0 | inactive: 0 | inactive: 0 | inactive: 0 | inactive: 0 | inactive: 0 | inactive: 0 | inactive: 0 | inactive: 0 | inactive: 0 | inactive: 0 | inactive: 0 | inactive: 0 | inactive: 0 | – | – | – | – | – | – | – | – | – | – | – | – | – | – | – | – | – | – | – | –
7 | N#CCC1(n2cc(-c3ncnc4[nH]ccc34)cn2)CN(C2CCN(C(=O)c3ccnc(C(F)(F)F)c3F)CC2)C1 [Itacitinib] | inactive: 0 | inactive: 0 | inactive: 0 | inactive: 0 | inactive: 0 | inactive: 0 | inactive: 0 | inactive: 0 | inactive: 0 | inactive: 0 | inactive: 0 | inactive: 0 | inactive: 0 | inactive: 0 | inactive: 0 | inactive: 0 | inactive: 0 | inactive: 0 | inactive: 0 | inactive: 0 | – | – | – | – | – | – | – | – | – | – | – | – | – | – | – | – | – | – | – | –
8 | CN(C)C/C=C/C(=O)Nc1cc2c(Nc3ccc(F)c(Cl)c3)ncnc2cc1O[C@H]1CCOC1 [Afatinib] | inactive: 0 | inactive: 0 | inactive: 0 | inactive: 0 | inactive: 0 | inactive: 0 | inactive: 0 | inactive: 0 | active: 1 | inactive: 0 | inactive: 0 | inactive: 0 | inactive: 0 | inactive: 0 | inactive: 0 | inactive: 0 | inactive: 0 | inactive: 0 | inactive: 0 | inactive: 0 | – | – | – | – | – | – | – | – | – | – | – | – | – | – | – | – | – | – | – | –
9 | C#Cc1cccc(Nc2ncnc3cc(OCCOC)c(OCCO)cc23)c1 [Desmethyl Erlotinib] | inactive: 0 | inactive: 0 | inactive: 0 | inactive: 0 | inactive: 0 | inactive: 0 | inactive: 0 | inactive: 0 | inactive: 0 | inactive: 0 | inactive: 0 | inactive: 0 | inactive: 0 | inactive: 0 | inactive: 0 | inactive: 0 | inactive: 0 | inactive: 0 | inactive: 0 | inactive: 0 | – | – | – | – | – | – | – | – | – | – | – | – | – | – | – | – | – | – | – | –
